# Values of other authors in patent US5250518A, “O-methyl derivatives of azithromycin A” (priority 1990, dated 1993).
# For at least one compound, name, drawing or mass did not settle the structure.
# Conditions: cited from earlier work
smiles,measurement,value
CC[C@H]1OC(=O)[C@H](C)[C@@H](O[C@H]2C[C@@](C)(OC)[C@@H](O)[C@H](C)O2)[C@H](C)[C@@H](O[C@@H]2O[C@H](C)C[C@H](N(C)C)[C@H]2O)[C@@]2(C)C[C@@H](C)[C@@]3(O[C@@]1(C)[C@H](O)[C@H]3C)O2 [anhydroerythromycin],activity of C-6/C-12 metabolite,inactive
